Measurements reported in PubChem BioAssay AID1508597 (Cure First, 2020).
Aim: 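Genes whose silencing sensitises or protects ovarian cancer cells against rucaparib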 (primary screen). System: human ovarian carcinoma lines grown from tumours: OCI-P5x (papillary serous) and OCI-C5x (clear cell). Reagents: siRNA pool against human genes, 1.25 pmol siRNA per well. Timing: 72 h or 96 h, depending on the cell culture. Challenge: rucaparib 20 µM (about IC30) or vehicle, present until read-out. Rucaparib or vehicle: Vehicle. Cell line: OCI-C5x (clear cell). Detection: 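Luminescent ATP-based viability assay read 72 or 96 h after transfection, depending on culture, given as normalised percent viability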. Direction: viability, normalised: higher = more viable cells remaining. Rule for the call: 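Active when normalised viability falls below 80 percent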. Meaning of the calls: active = viability under 80%; inactive = viability 80% or more.
Shown is a random part of the about 2,100 reagents, under one of the conditions tested. 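Calls flag viability under 80% in either arm, not effects specific to rucaparib; the reference for percent is not stated.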 Unmarked entries are inactive. The record does not give: the 100% reference.

Target gene	PubChem SID	technical replicate	viability, normalised (%)
KMT2A (lysine methyltransferase 2A)	SID405527015	1	41.1 (active)
KMT2A (lysine methyltransferase 2A)	SID405527015	2	33.5 (active)
KMT2A (lysine methyltransferase 2A)	SID405527015	3	42.4 (active)
NRXN3 (neurexin 3)	SID405527094	1	51.9 (active)
NRXN3 (neurexin 3)	SID405527094	2	44.1 (active)
NRXN3 (neurexin 3)	SID405527094	3	50.5 (active)
NRXN1 (neurexin 1)	SID405527092	1	43 (active)
NRXN1 (neurexin 1)	SID405527092	2	38.2 (active)
NRXN1 (neurexin 1)	SID405527092	3	47.6 (active)
FECH (ferrochelatase)	SID405526782	1	49 (active)
FECH (ferrochelatase)	SID405526782	2	70.8 (active)
FECH (ferrochelatase)	SID405526782	3	68.9 (active)
AKT2 (AKT serine/threonine kinase 2)	SID405527406	1	70.1 (active)
AKT2 (AKT serine/threonine kinase 2)	SID405527406	2	75.9 (active)
AKT2 (AKT serine/threonine kinase 2)	SID405527406	3	61 (active)

Continued (3 carried over from the part before).
Target gene	PubChem SID	technical replicate	viability, normalised (%)
AKT2 (AKT serine/threonine kinase 2)	SID405527406	1	70.1 (active)
AKT2 (AKT serine/threonine kinase 2)	SID405527406	2	75.9 (active)
AKT2 (AKT serine/threonine kinase 2)	SID405527406	3	61 (active)
AK7 (adenylate kinase 7)	SID405527813	1	51.5 (active)
AK7 (adenylate kinase 7)	SID405527813	2	54.2 (active)
AK7 (adenylate kinase 7)	SID405527813	3	44 (active)
MED14 (mediator complex subunit 14)	SID405526989	1	51.3 (active)
MED14 (mediator complex subunit 14)	SID405526989	2	46.4 (active)
MED14 (mediator complex subunit 14)	SID405526989	3	60.3 (active)
RRM2B	SID405528455	1	32.5 (active)
RRM2B	SID405528455	2	43.2 (active)
RRM2B	SID405528455	3	33.4 (active)
